# Some of the results follow.
# Target: T1, OsSMF1 (Oryza sativa, UniProt Q6ZLB0 1-436)
# T1 sequence: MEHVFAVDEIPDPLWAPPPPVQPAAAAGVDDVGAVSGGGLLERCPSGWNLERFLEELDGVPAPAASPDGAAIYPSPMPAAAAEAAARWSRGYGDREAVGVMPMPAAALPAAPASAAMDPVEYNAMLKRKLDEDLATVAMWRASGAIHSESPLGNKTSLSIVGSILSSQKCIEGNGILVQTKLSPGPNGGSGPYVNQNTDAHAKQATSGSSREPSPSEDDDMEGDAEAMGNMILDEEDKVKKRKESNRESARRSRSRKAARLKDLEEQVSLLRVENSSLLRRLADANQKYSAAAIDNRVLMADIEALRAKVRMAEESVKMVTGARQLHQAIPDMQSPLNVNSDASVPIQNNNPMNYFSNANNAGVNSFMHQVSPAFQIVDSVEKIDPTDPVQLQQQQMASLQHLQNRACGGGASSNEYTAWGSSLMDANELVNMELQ
# Assay: protein-binding microarray (RPBM); PBS, 2% BSA, 51.3 ng/ul salmon testes DNA, 50 uM zinc acetate, 200 nM TF, 25 C, 1 h; high values mean tight binding
# Conditions: protein: recombinant; tags: N-terminal polyhistidine and DsRed monomer fusion (pET32a); chain copies: 2; label: CyDye5-dUTP incorporated in the synthesized complementary strand; 3' TTTTT single-stranded linker to array surface; dsDNA, one strand shown
# In short: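 A custom Agilent array was converted to double-stranded form by primer extension with Cy5-dUTP and blocked with 2% BSA. Protein at 200 nM in PBS with 2% BSA, salmon testes DNA and 50 µM zinc acetate was applied for 1 h at 25 °C, followed by washing. The proteins were polyhistidine–DsRed N-terminal fusions of transcription factors, expressed in E. coli BL21-CodonPlus and Ni–NTA-purified. The binding signal is per-feature fluorescence intensity (arbitrary units) from an Axon 4000B scanner.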
row,Sequence,binding signal
1,AGGAGATAGAGGTAGAGAGGGTGAGGTGGAGGAAATTGAACGGAGTCACCTAGTGCAG,4160 fluorescence intensity (a.u.)
2,GTATCTTGACCGGCGGAGTCATCGTCAGCGGTCAGCTCCTCGGAGTCACCTAGTGCAG,5590 fluorescence intensity (a.u.)
3,CAGCCACTGGGAAGCGGTGTCATCGTCACCGCCGATGACCCGGAGTCACCTAGTGCAG,5120 fluorescence intensity (a.u.)
4,GCTAGGACTGAATGTGGATGTGACACGTTCTACATCCAAGCGGAGTCACCTAGTGCAG,5510 fluorescence intensity (a.u.)
5,TTGTCCTGCGTGGCGGCTTAGTCAGCATGGGACTCACGTGCGGAGTCACCTAGTGCAG,20100 fluorescence intensity (a.u.)
6,ACCTAATAACTCTACACTTTTATTACGTGACACTGCTTTTCGGAGTCACCTAGTGCAG,4180 fluorescence intensity (a.u.)
7,CGTCTCCTCGTCCTCATCCACGGCGAGTCCGCGTCATCCACGGAGTCACCTAGTGCAG,8280 fluorescence intensity (a.u.)
8,TATGAAATATGTAACAGATCATGACTTGGGTATTACGTTTCGGAGTCACCTAGTGCAG,3410 fluorescence intensity (a.u.)
9,CTCCTCTCCTCCACCTCACCTCACTCCCCACTACTTTCCCCGGAGTCACCTAGTGCAG,3820 fluorescence intensity (a.u.)
10,GAAAATGATTCATCTGCAAACTACCCTTGACTTGAAATGGCGGAGTCACCTAGTGCAG,3480 fluorescence intensity (a.u.)
11,TATGTGATAAAGTGATAGATCGAGAAAGTAAGCAGTAGGCCGGAGTCACCTAGTGCAG,3770 fluorescence intensity (a.u.)
12,TAATACCTTGAGTTATGTGTCACATGTCAAAATCCTTGTGCGGAGTCACCTAGTGCAG,5060 fluorescence intensity (a.u.)
13,ATGCCCCGCTTCTCCTTCCAAGCATATCCTACCACATCGTCGGAGTCACCTAGTGCAG,3370 fluorescence intensity (a.u.)
14,CAGACTTGCGGTGGATGGGGCGGTGGGGAAAGCATAAATGCGGAGTCACCTAGTGCAG,3910 fluorescence intensity (a.u.)
15,CATCAGATGCGCCCATCGCTTGAAGGAGAGACGCCGAGACCGGAGTCACCTAGTGCAG,27300 fluorescence intensity (a.u.)
16,ATCTCTGATGTCTCACCTACACAACGTGGATCACAAGTCGCGGAGTCACCTAGTGCAG,3240 fluorescence intensity (a.u.)
17,GAGGTGACATGTCATTGTTACATGGTAAAGTGAAGAACAGCGGAGTCACCTAGTGCAG,3780 fluorescence intensity (a.u.)
18,TATATATATATATATATATATATATATATATATATATATACGGAGTCACCTAGTGCAG,3210 ± 33.9 fluorescence intensity (a.u.)
19,CGAAGATTAATAAAGTAGGTAAAGTGATGTGGCGAATGGTCGGAGTCACCTAGTGCAG,9540 fluorescence intensity (a.u.)
20,CCTCTGCAGCAGCGTTTTATTAACAAACATGAAAATCTCCCGGAGTCACCTAGTGCAG,23200 fluorescence intensity (a.u.)
21,TTATTATTATCTTTCTCAGAAATGAAGCACTCAGAGTTGCCGGAGTCACCTAGTGCAG,23000 fluorescence intensity (a.u.)

# Some of the entries above, reformatted.
row	Sequence	binding signal
2	GTATCTTGACCGGCGGAGTCATCGTCAGCGGTCAGCTCCTCGGAGTCACCTAGTGCAG	5590 fluorescence intensity (a.u.)
3	CAGCCACTGGGAAGCGGTGTCATCGTCACCGCCGATGACCCGGAGTCACCTAGTGCAG	5120 fluorescence intensity (a.u.)

# Following part.

row,Sequence,binding signal
1,TCCTCTTGTATTCAGCTTTTCGTTTACGTGGAAACTCTACCGGAGTCACCTAGTGCAG,4690 fluorescence intensity (a.u.)
2,CATTACTCTGAAAACTATATGTGTGTGTGCATCACATCTCCGGAGTCACCTAGTGCAG,3660 fluorescence intensity (a.u.)
3,ATAAGGACGGAGGGAATACAAAGTTAAAATCCGTCATCTTCGGAGTCACCTAGTGCAG,3140 fluorescence intensity (a.u.)
4,GCAATGGCGGTGGCGTTCGCGCCATCGACATGGACGGCGACGGAGTCACCTAGTGCAG,3200 fluorescence intensity (a.u.)
5,GGTGGCGCTCACCCTCGCGCTGACCGCCATGTGGCCTCCGCGGAGTCACCTAGTGCAG,3790 fluorescence intensity (a.u.)
6,GGGTGGTGGAAGGACAACGTCAGCTTCGACCGCGCGGGCCCGGAGTCACCTAGTGCAG,4390 fluorescence intensity (a.u.)
7,CTTCGGTCGGCATGCGCACGTGGGCATCGGCGCTCCGAGTCGGAGTCACCTAGTGCAG,3780 fluorescence intensity (a.u.)
8,TGATGCGTTCAATCTAGTTTACATCTGCAATGTCATGATTCGGAGTCACCTAGTGCAG,4330 fluorescence intensity (a.u.)
9,TTAGCAATGTAGGCGCCACATCAGCTAAAATCATCATCCACGGAGTCACCTAGTGCAG,8430 fluorescence intensity (a.u.)
10,TTCCTAAGTTCGAAAACTATTTTGTAATAATACACGTAAGCGGAGTCACCTAGTGCAG,4420 fluorescence intensity (a.u.)
11,CTCTCGGCACGCAGCCACGCACGCACGCACGCACGCATGCCGGAGTCACCTAGTGCAG,4850 fluorescence intensity (a.u.)
12,AGGCTCTCTATAAGAGATCCATGTCAGCATATTTTCCTACCGGAGTCACCTAGTGCAG,16000 fluorescence intensity (a.u.)
13,TTGTAAATAAAACTTTTATAAACGTGTTCTTAGCGATTTACGGAGTCACCTAGTGCAG,3260 fluorescence intensity (a.u.)
14,CGATTAGCCCCGCCATGTGGCTGTGTGCGATTCGAGGGTCCGGAGTCACCTAGTGCAG,7110 fluorescence intensity (a.u.)
15,GGGCCTACGTGGGTCCCACGTTGACTCAGCCGTCACGTAGCGGAGTCACCTAGTGCAG,11500 fluorescence intensity (a.u.)
16,AATCGTAGCAACCATCACCACCGTGTTGTTCATCGTGCACCGGAGTCACCTAGTGCAG,3720 fluorescence intensity (a.u.)
17,TCAAAGATGCTCATAGATGCAGGGTTTACGTGTGTGTTCACGGAGTCACCTAGTGCAG,3620 fluorescence intensity (a.u.)
18,TGTGAATTATGTGGGATGATAATTTAACATACTTGTATTTCGGAGTCACCTAGTGCAG,38200 fluorescence intensity (a.u.)
19,CCTAACACGGACAGGCCGCACGTAGCTGTAAGGAACCCCGCGGAGTCACCTAGTGCAG,4080 fluorescence intensity (a.u.)
20,GTAATGCGCAAGATAGTTGTGCTCATGTCTGACTCCTTTGCGGAGTCACCTAGTGCAG,3530 fluorescence intensity (a.u.)
21,ACACCTTCACACCATCATCTCTTTGCTTGATTCACCTGGACGGAGTCACCTAGTGCAG,3660 fluorescence intensity (a.u.)

# — PMC7819943, “Rice protein-binding microarrays: a tool to detect cis-acting elements near promoter regions in rice”
